Taken from: PubChem BioAssay AID1259425 (University of Nebraska Medical Center, 2018)
In all, the deposit lists about 14,000 reagents; below is a random part of them. A reagent listed more than once was tested more than once; the source does not tell the runs apart. Not all columns of the deposit are shown. The record does not give: the time to read-out.

Aim: 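Compare each knockdown with KSR1 silencing using changes in marker transcripts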 (primary screen)
System: HCT116 human colon cancer cells
Reagent: siRNA pool against human genes, 50 nM siRNA
Measurement: 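mRNA of six signature genes measured together by branched-DNA assay after 50 nM siRNA pool, blank removed, divided by geometric mean of two housekeeping genes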
Scale: BNIP3L mRNA: higher = more BNIP3L transcript after knockdown; NDRG1 mRNA: higher = more NDRG1 transcript after knockdown; BNIP3 mRNA: higher = more BNIP3 transcript after knockdown

target gene	BNIP3L mRNA, set 1	NDRG1 mRNA, set 1	BNIP3 mRNA, set 1
PRODH	0.101	0.106	0.272
TMEM243	0.182	0.237	0.377
FAM53C	0.221	0.219	0.622
APOBEC3G	0.0773	0.11	0.176
GRK2	0.188	0.426	0.356
GRK2	0.142	0.413	0.358
TET1	0.12	0.347	0.667
HDAC2	0.0771	0.173	0.151
XPO4	0.151	0.304	0.19
SIK3	0.082	0.135	0.423
ERCC8	0.0516	0.105	0.201
BRWD1	0.0864	0.172	0.314
DENND3	0.111	0.214	0.241
AAGAB	0.202	0.252	0.335
FAM8A1	0.0812	0.0942	0.306
SNW1	0.0872	0.121	0.326
NBPF3	0.139	0.108	0.173
SAMHD1	0.138	0.2	0.408
TYRP1	0.05	0.172	0.306
ORC3	0.0776	0.143	0.46
ZNF215	0.0987	0.11	0.269
FASTKD1	0.0898	0.0756	0.309
CIT	0.14	0.0941	0.383
PDGFB	0.0551	0.166	0.286
CLK2	0.0738	0.142	0.314
IL13	0.107	0.175	0.389
ZNF138	0.0745	0.0999	0.226
NPY4R	0.136	0.463	0.489
JARID2	0.13	0.0369	0.332
CDH23	0.233	0.359	0.356
CYB5R1	0.149	0.198	0.509
PPP4R1	0.0954	0.144	0.127
MITF	0.0965	0.331	0.364
TCL1B	0.0701	0.0504	0.201
SPRR1A	0.19	0.651	0.257
IL36G	0.0473	0.112	0.261
MUC5AC	0.132	0.165	0.412
ERCC3	0.0849	0.122	0.122
ZNF678	0.128	0.17	0.191
APOB	0.0321	0.13	0.247
REC8	0.148	0.141	0.461
POLR2B	0.0777	0.598	0.365
MRPL45	0.166	0.349	0.29
CFL2	0.107	0.21	0.418
GHR	0.0488	0.0646	0.189
RBMX	0.0838	0.0943	0.276
AACS	0.0654	0.164	0.223
LPA	0.18	0.209	0.319
ERCC1	0.127	0.698	0.262
TNRC18	0.105	0.769	0.652
UBE2D4	0.081	0.104	0.186
SUN2	0.134	0.454	0.613
ABCC2	0.0897	0.0775	0.342
KLF9	0.149	0.114	0.488
ITGA2	0.0834	0.0279	0.185
RGS14	0.121	0.314	0.269
DUSP5	0.192	0.159	0.374
HUNK	0.129	0.155	0.177
CRYGA	0.119	0.291	0.281
OXSM	0.0733	0.0897	0.346
FCGR2C	0.0747	0.225	0.54
CASR	0.115	0.26	0.302
ATP1A2	0.085	0.107	0.277
